# Assay results reported in PubChem BioAssay AID485318 (Broad Institute, 2010).
# Protein sequences, listed by entry. Tags and fused reporters are not part of them. Lines headed by an entry give the natural chain unless they say otherwise; changes in a name come on top.
# UniProt O15379: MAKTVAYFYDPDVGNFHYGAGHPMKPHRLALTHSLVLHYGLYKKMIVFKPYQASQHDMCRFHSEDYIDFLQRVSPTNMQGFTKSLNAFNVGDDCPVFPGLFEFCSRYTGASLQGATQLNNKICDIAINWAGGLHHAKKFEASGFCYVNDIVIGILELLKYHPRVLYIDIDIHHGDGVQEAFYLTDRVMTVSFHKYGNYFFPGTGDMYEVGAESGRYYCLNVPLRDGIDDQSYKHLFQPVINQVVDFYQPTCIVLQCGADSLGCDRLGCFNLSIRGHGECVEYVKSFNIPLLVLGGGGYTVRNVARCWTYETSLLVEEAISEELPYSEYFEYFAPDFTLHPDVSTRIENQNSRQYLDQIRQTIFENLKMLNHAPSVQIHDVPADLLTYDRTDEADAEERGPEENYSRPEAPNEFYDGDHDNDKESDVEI
# Out of some 1,400 compounds screened, fewer than 10 were called active.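 How the source made its calls: active means fluorescence-lowering compounds whose fitted half-maximal concentration is at or below ten times the highest valid dose tested; inconclusive means flat curve at 30 to 70% inhibition, or poor fit; inactive means the rest.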 The list shows a part of the results.
# Molecular target: Histone deacetylase 3 (Homo sapiens) (UniProt O15379)
# Assay: HDAC3 deacetylase inhibitors, dose response, counter-screen for JMJD2C/GASC1 demethylase inhibitor project, biochemical, fluorescence, cherry-picked samples (AID 485318);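 further: enzyme preincubated with compound before substrate and trypsin were added; 0% = neutral control wells and -100% = SAHA positive control wells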
# Conditions: recombinant HDAC3, fluorogenic peptide/trypsin coupled; at 12 µM (top of the series)
row,Structure (SMILES),"activity change, negative = inhibition"
1,Cc1c(NC(=O)CCN2C(=O)c3ccccc3C2=O)c(=O)n(-c2ccccc2)n1C,inactive: 0.431%
2,C#CCOCCOCCOCCNc1nc(N2CCN(C(=O)C([C@@H](C)O)n3cc([C@@H](N)CCCCN)nn3)CC2)nc(N2CCN(C(=O)[C@H](CC(N)=O)n3cc([C@@H](N)C(C)C)nn3)CC2)n1 (stereo partly drawn),inactive: 0.407%
3,CC(=O)N/C(=C\c1ccccc1)C(=O)OCC(=O)NC1CCCC1,inactive: -0.477%
4,O=C(O)c1ccc2c(c1)C(=O)N(CCC1=CCCCC1)C2=O,inactive: 0.227%
5,CCOc1cc(NC(=S)NCCOC)c(OCC)cc1NC(=O)c1cccs1,inactive: -1.07%
6,CCC(=O)Nc1cc2c(cc1C(=O)CC)OCCO2,inactive: -0.0822%
7,COc1ccc(NN=Nc2nc3c([nH]2)c(=O)n(C)c(=O)n3C)cc1,inactive: 0.508%
8,O=c1c2cnn(-c3ccccc3)c2nc(-c2cccs2)n1-c1ccc(Cl)cc1,inactive: 0.414%
9,Cc1ccc(-c2noc(C3CCN(S(C)(=O)=O)CC3)n2)o1,inactive: -0.331%
10,COc1ccc(Nc2ncnc3sc(-c4ccccc4)cc23)cc1OC,inactive: -0.433%
11,Cc1nnc(-c2cccc(Br)c2)c2cn(-c3ccccc3Cl)nc12,inactive: 0.673%
12,O=C(OCCCOC(=O)c1ccc(Br)o1)c1ccc(Br)o1,inactive: 0.495%
13,COc1ccc(NC(=S)NCCCn2ccnc2)cc1,inactive: -0.13%
14,CCOc1ccc(CN(C)CC(=O)Nc2cc(C)c(C)cc2[N+](=O)[O-])cc1,inactive: -0.108%
15,N#Cc1ccc(OCC(=O)Nc2ccccc2NS(=O)(=O)c2cccs2)cc1,inactive: -0.131%
16,Cc1nc(C(C)NC(=O)CCc2nnc(CCCc3ccccc3)o2)c(C)s1 (stereo not drawn),inactive: -0.657%
17,CCOC(=O)c1sc(=S)n(-c2ccc(Cl)cc2)c1SC,inactive: 0.862%
18,COc1ccc(CC(=O)Nc2ccc(S(=O)(=O)N(C)C)cc2)cc1OC,inactive: -0.171%
19,O=C(CSc1nnc(CNC(=O)c2ccco2)o1)NC1CCCC1,inactive: 0.355%
20,CCCC(=O)NC(c1cccs1)c1cc(Cl)c2cccnc2c1O (stereo not drawn),inactive: -0.547%
21,CCNC(=S)NNC(=O)c1csc2c1CCC(C)C2 (stereo not drawn),inactive: 0.337%
22,O=C(c1cccs1)N1CCN(S(=O)(=O)c2ccc(F)cc2)CC1,inactive: 0.208%

row,Structure (SMILES),"activity change, negative = inhibition"
1,CCOC(=O)C1=C(C)NC(=O)NC1c1c(C)nn(-c2ccccc2)c1Cl (stereo not drawn),inactive: 0.387%
2,Cc1cccc(NC(=O)CCN2CCN(C/C=C/c3ccccc3)CC2)c1,inactive: -0.344%
3,CCC(C(=O)NCCCc1ccccc1)c1ccccc1 (stereo not drawn),inactive: 0.435%
4,COCCn1nnnc1C(c1ccccc1)N1CCN(C(=O)c2ccco2)CC1 (stereo not drawn),inactive: -0.0066%
5,CC(=O)Oc1ccc(NC(=O)Cc2ccccc2)c(C(=O)O)c1,inactive: 0.179%
6,CCOC(=O)Cn1c(=O)cnc2ccccc21,inactive: -0.102%
7,CC(C)CCN(C(=O)C1=COCCO1)c1c(N)n(Cc2ccccc2)c(=O)[nH]c1=O,inactive: -0.567%
8,O=C(Cn1cnc2ccccc2c1=O)NCc1cccs1,inactive: 1.05%
9,CCc1nn2c(N3CCOCC3)cc(C)nc2c1-c1ccc(F)cc1,inactive: 0.143%
10,CC(=O)c1ccc(O[C@@H]2O[C@H](CO)[C@@H](O)[C@H](O)[C@H]2O)cc1,inactive: -0.355%
11,CCCCn1c(-c2ccsc2)nc2c1c(=O)[nH]c(=O)n2CCC,inactive: 0.225%
12,CCN(CC)CCSc1nc2ccccc2c(=S)n1-c1ccccc1,inactive: -0.421%
13,CC(=O)C[C@@H](O)CC(=O)[C@H]1OC(=O)[C@H](C)C/C=C\Cc2ccccc21,inactive: -0.625%
14,CCC(CO)Oc1cc(NC(=O)c2cccc(OC)c2)c2ncn(C(C)C)c2c1 (stereo not drawn),inactive: -0.418%
15,CC(C)(C)NC(=O)C1CCN(C(=O)c2ccc(Br)cc2)CC1,inactive: -0.16%
16,O=[N+]([O-])c1ccccc1N/N=C\c1ccccc1Cl,inactive: -0.288%
17,Cc1noc(C)c1NC(=O)Nc1cccc2c1O[C@H](CN(C)C(=O)Nc1ccc3c(c1)OCO3)[C@@H](C)CN([C@H](C)CO)C2=O,inactive: 0.208%
18,Cc1ccc(/C=N\NC(=O)c2cc([N+](=O)[O-])cc([N+](=O)[O-])c2)o1,inactive: -0.64%
19,O=C(O)CCCNC(=O)c1cccc(C(=O)NCCCC(=O)O)n1,inactive: 1.32%
20,COc1ccc(C)cc1NC(=O)CN(C)S(=O)(=O)c1ccc2c(c1)CC(C)N2C(C)=O (stereo not drawn),inactive: 0.478%
21,Cc1ccc(NN=Nc2nc3c([nH]2)c(=O)n(C)c(=O)n3C)cc1,inactive: -0.597%
22,CCCCNC(=O)OCCNC(=O)Oc1cccc(C)c1,inactive: -0.629%

row,Structure (SMILES),"activity change, negative = inhibition"
1,Cc1ccc(OC(=O)c2ccc3nc(C)sc3c2)cc1,inactive: 0.613%
2,Cc1cc(OC(=O)N2CCOCC2)cc(C)c1Cl,inactive: 0.236%
3,O=C(COC(=O)C1(c2ccccc2F)CCCC1)Nc1ncc(C(F)(F)F)cc1Cl,inactive: -0.037%
4,Cc1ccc(S(=O)(=O)N2[C@@H](c3ccc(Cl)c(Cl)c3)C(C(=O)O)=C[C@H]2C(C)(C)C)cc1,inactive: -0.663%
5,Cc1cccc(C(=O)N/N=C/C(C)Cc2ccc3c(c2)OCO3)c1 (stereo not drawn),inactive: -0.0551%
6,C[C@H]1CN([C@@H](C)CO)C(=O)Cc2cc(NS(=O)(=O)c3cccs3)ccc2O[C@H]1CN(C)S(=O)(=O)c1cn(C)cn1,inactive: -0.706%
7,CNC(=O)C1=NCCCc2cc(OC)c(OC)cc21,inactive: -0.166%
8,Nc1c(C(=O)NC2CC2)sc2nc3c(c(-c4ccco4)c12)CC/C3=C/c1ccco1,inactive: -0.316%
9,Cc1cc(C)nc(NC(N)=NC(C)c2ccccc2)n1 (stereo not drawn),inactive: 0.352%
10,CC(C)CC1c2[nH]c3ccccc3c2CCN1C(=O)c1cnccn1 (stereo not drawn),inactive: -1.25%
11,Cc1nn(C)c(N)c1C(O)(c1nccn1C)C(F)(F)F (stereo not drawn),inactive: 0.0673%
12,COc1ccc(S(=O)(=O)Nc2ccc3c(c2)C(=O)N([C@H](C)CO)C[C@H](C)[C@@H](CN(C)S(=O)(=O)c2c(C)noc2C)O3)cc1,inactive: -0.195%
13,CSc1nc(N)nc2c1ncn2CC(=O)NCCNc1ccc([N+](=O)[O-])cn1,inactive: -0.105%
14,Cc1ccc(S(=O)(=O)Nc2ccc3c(c2)C(=O)N([C@H](C)CO)C[C@H](C)[C@@H](CN(C)Cc2ccccc2)O3)cc1,inactive: -0.143%
15,COc1ccccc1N1CCN(c2nc3c(C)cccn3c(=O)c2C=O)CC1,inactive: 0.107%
16,CNCCNC[C@H](Cc1cccc2ccccc12)NCCc1ccccc1,inactive: 0.726%
17,COC(=O)CSC1=C(C#N)C(c2ccsc2)CC(=O)N1 (stereo not drawn),inactive: 0.541%
18,C/C(=N\NC(=O)c1ccncc1)c1ccc(N(C)C)cc1,inactive: 0.954%
19,CCCn1nnnc1SCC(=O)NCc1ccc(OC)cc1,inactive: -0.104%
20,O=c1c(O)cccc2cc(O)c(O)c(O)c12,inactive: -0.21%
21,CCCC(CCC)C(=O)Nc1cccc(-c2cn3c(n2)SCC3)c1,inactive: -0.0929%
22,COc1cccc(NC(=O)N2CCN(c3cccc(C)c3)C(C)C2)c1 (stereo not drawn),inactive: 0.124%

row,Structure (SMILES),"activity change, negative = inhibition"
1,Fc1ccc(-c2csc(Nc3ccccn3)n2)cc1,inactive: 0.334%
2,CC[C@@H]1CCCCc2ccccc2[C@@H](C(=O)C[C@@H](O)CC(C)=O)OC1=O,inactive: 0.383%
3,Cc1ccc(NC2=NCC(=O)N2Cc2ccc3c(c2)OCO3)c(C)c1,inactive: 0.52%
4,CCOc1cccc(C2C(C(=O)c3ccco3)=C(O)C(=O)N2Cc2ccncc2)c1 (stereo not drawn),inactive: -0.0935%
5,CSc1nc(N2CCN(C)CC2)c2c(c1C#N)CC(C)(C)OC2,inactive: 0.22%
6,O=C(CSc1nnc(CNC(=O)c2cccs2)o1)c1ccccc1,inactive: 0.0984%
7,O=[N+]([O-])c1ccccc1S(=O)(=O)N1CCN(Cc2ccc3c(c2)OCO3)CC1,inactive: -0.716%
8,COc1cccc(/C=N/NC(=O)CNC(=O)c2cccs2)c1O,inactive: 0.431%
9,O=C(Cc1sc(-c2ccccc2)nc1-c1ccccc1)Nc1ccccc1,inactive: -0.152%
10,COc1ccc(CC(=O)Nc2ccc(/C(C)=N/NC(=O)c3cccc([N+](=O)[O-])c3)cc2)cc1,inactive: -0.185%
11,O=C(NC(=S)Nc1ccccn1)c1ccc([N+](=O)[O-])cc1,inactive: 1.11%
12,Cc1nnc2c(N3CCN(C(=O)c4ccco4)CC3)nc3ccccc3n12,inactive: 0.2%
13,COc1ccc(CNC(=O)CSc2nnnn2Cc2ccccc2)cc1,inactive: 0.244%
14,Clc1cccc(Cl)c1Cn1c(-c2cccnc2Cl)nc2ccccc21,inactive: 0.825%
15,COc1ccc(OCC(=O)N2CCC3(CC2)CC(=O)c2ccccc2O3)cc1,inactive: -0.153%
16,CC(=O)C(Sc1nc(N2CCOCC2)nc(N2CCOCC2)n1)C(=O)Nc1ccccc1 (stereo not drawn),inactive: 0.0396%
17,COc1cc(S(=O)(=O)N(Cc2cccs2)CC2CCCO2)ccc1-n1cnnn1 (stereo not drawn),inactive: -0.204%
18,COc1ccc(CCNC(=O)c2ccc3c(c2)NC(=O)C(N2CCOCC2)S3)cc1OC (stereo not drawn),inactive: -0.744%
19,CC(C)NC(=O)Nc1cccc2c1O[C@H](CN(C)C(=O)NC1CCCCC1)[C@H](C)CN([C@H](C)CO)C2=O,inactive: 0.502%
20,NC(=O)COc1cccc2cccnc12,inactive: 0.026%
21,O=C(Nc1cccc(Cl)c1)NC1CCN(C2CCCCC2)C1 (stereo not drawn),inactive: -0.217%
22,Cc1ccc(NC(=O)COC(=O)c2ccco2)cc1S(=O)(=O)N1CCOCC1,inactive: 0.773%
